Data from patent US20220313733A1, “METHOD FOR PRODUCING RENAL INTERSTITIAL CELL” (Kyoto University, priority 2019, published 2022).
For at least one compound, name, drawing or mass did not settle the structure.

System: neural crest cells
Test: Amount of EPO secreted into the medium during induction and posterior shift of NCCs with RA (EPO ELISA)
Format: cell-based, human

Structure (SMILES): CC1=C(/C=C/C(C)=C/C=C/C(C)=C/C(=O)O)C(C)(C)CCC1 [RA, retinoic acid]
- amount of EPO secreted (Day 18, RA 0 to 10 μM): largest under the RA concentration condition of 3 μM
- amount of EPO secreted into the medium (RA 0, 1 or 3 μM from Day 6, induction period up to Day 21): largest under the condition with the RA concentration of 3 μM
